Reference: US20060018921A1, “Histone deacetylase inhibitors and cognitive applications” (priority 2004, published 2006)
“Also recorded” adds a separate entry of the source. At least one compound was matched to its structure with a doubt left.

Columns and labels:
[1] = test system: ERK1; assay: P-ERK1 western blot, acute hippocampal slices, area CA1; settings: slices treated 1 h; data not shown
[2] = test system: ERK2; assay: P-ERK2 western blot, acute hippocampal slices, area CA1; settings: slices treated 1 h; PDA 3 μM, FSK 50 μM with 100 μM Ro20-1724, U0126 20 μM, PD98059 50 μM, 4αP 3 μM, dFSK 50 μM with 100 μM Ro20-1724, TSA
[3] = test system: histone H3 (Lys14); assay: Acetylation of histone H3, acute hippocampal slices, area CA1; settings: slices treated 1 h; PDA 3 μM, FSK 50 μM with 100 μM Ro20-1724, 4αP 3 μM, dFSK 50 μM with 100 μM Ro20-1724, U0126 20 μM, PD98059 50 μM, TSA 1.65 μM
[4] = test system: ERK2; assay: P-ERK2 western blot of area CA1 after contextual fear conditioning; settings: MK-801 300 μg/kg 1 h prior to training, SL327 100 mg/kg immediately after training
[5] = SL327 injected immediately after fear conditioning; Atkins et al., 1998; cited from earlier work
[6] = test system: histone H4 (Lys5/Lys8/Lys12/Lys16); assay: Acetylation of histone H4 in area CA1 after contextual fear conditioning; settings: injection of MK-801 1 h prior to or SL327 immediately after training
[7] = test system: histone H3 (Lys14); assay: Acetylation of histone H3 in area CA1 after contextual fear conditioning; settings: injection of MK-801 1 h prior to or SL327 immediately after training

SMILES | levels of P-ERK1 [1] | levels of P-ERK2 [2] | histone H3 acetylation [3] | increase in P-ERK2 in area CA1 1 h after fear conditioning [4] | formation of long-term contextual fear memory [5] | histone H4 acetylation in area CA1 after fear conditioning [6] | increase in acetylation of histone H3 in area CA1 1 h after fear conditioning [7]
C=C[C@@]1(C)CC(=O)[C@]2(O)[C@@]3(C)[C@@H](O)CCC(C)(C)[C@@H]3[C@H](O)[C@H](OC(C)=O)[C@@]2(C)O1 [FSK, forskolin] | but not P-ERK1 | significantly increased levels of P-ERK2; also recorded: significant increases in levels of P-ERK2 | significantly increased acetylation of histone H3 |  |  |  | 
N#C/C(=C(/N)Sc1ccc(N)cc1)c1ccccc1C(F)(F)F [SL327] |  |  |  | blocked the increase in P-ERK2; also recorded: inhibited the increase in P-ERK2 | prevents formation of long-term contextual fear memory | no effect on histone H4 acetylation | inhibited the increase in H3 acetylation; also recorded: No change in H3 acetylation
